Experimental data taken from paper PMC5663514, “Biochemical characterization of Borrelia burgdorferi’s RecA protein”.
The exact form of at least one protein or probe is not confirmed. Weaker means in comparison with the reference protein, sequence or condition of that experiment. At least one verdict was read from the data and is not stated in words by the source. Tags and fusion partners may be left off the protein sequences shown.

Target: T1, B. burgdorferi RecA (Borrelia burgdorferi B31) (UniProt Q59180)
T1 sequence (looked up, limits assumed): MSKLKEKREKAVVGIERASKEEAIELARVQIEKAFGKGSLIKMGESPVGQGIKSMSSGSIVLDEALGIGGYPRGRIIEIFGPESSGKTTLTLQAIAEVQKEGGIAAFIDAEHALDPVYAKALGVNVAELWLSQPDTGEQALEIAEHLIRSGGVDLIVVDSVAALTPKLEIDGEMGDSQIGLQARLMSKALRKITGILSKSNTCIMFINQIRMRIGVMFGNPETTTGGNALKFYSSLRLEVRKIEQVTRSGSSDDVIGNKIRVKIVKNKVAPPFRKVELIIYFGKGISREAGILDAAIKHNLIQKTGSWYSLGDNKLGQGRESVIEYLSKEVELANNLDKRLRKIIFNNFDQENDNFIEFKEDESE
Experiment: EMSA with glutaraldehyde protein-protein crosslinking
Settings: 2 mM Mg2+, 25 mM HEPES pH 7.6, 2 mM MgCl2, 1 mM DTT, 50 mM NaCl, 10 nM DNA molecules, 30°C 5 min, then 0.033% glutaraldehyde 5 min at 20°C/room temperature, recombinant protein

Sequence | binding result (no ATP, lower affinity than with ATP, +/- 2 mM ATP, single-stranded DNA) | binding result (2 mM ATP, ssDNA preferred over dsDNA) | binding result (no ATP, ssDNA preferred over dsDNA, +/- 2 mM ATP)
TGCAGGCATGCAAGCTTGGCGTAATCATGGTCATAGCTGTTTCCTGTGTGAAATTGTTATCCGCTCACAATTCCACACAACATACGAGCCGGAAG [OGCB396 95 nt ssDNA] | binds |  | 
TGCAGGCATGCAAGCTTGGCGTAATCATGGTCATAGCTGTTTCCTGTGTGAAATTGTTATCCGCTCACAATTCCACACAACATACGAGCCGGAAG (double strand) [OGCB396/OGCB742 95 bp dsDNA] |  | binds more weakly | binds more weakly
